Data: doi:10.1101/2023.09.04.556101

Sequences of proteins named here, by UniProt entry; tags and fusion partners are left off.
UniProt Q92826: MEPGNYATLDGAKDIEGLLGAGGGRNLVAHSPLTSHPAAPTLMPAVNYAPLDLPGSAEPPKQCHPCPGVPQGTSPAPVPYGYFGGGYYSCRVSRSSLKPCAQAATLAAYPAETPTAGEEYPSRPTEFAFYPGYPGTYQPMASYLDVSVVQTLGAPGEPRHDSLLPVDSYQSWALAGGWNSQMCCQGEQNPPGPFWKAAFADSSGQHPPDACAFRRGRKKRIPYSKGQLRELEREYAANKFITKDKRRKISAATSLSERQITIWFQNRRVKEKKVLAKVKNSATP
UniProt P10275: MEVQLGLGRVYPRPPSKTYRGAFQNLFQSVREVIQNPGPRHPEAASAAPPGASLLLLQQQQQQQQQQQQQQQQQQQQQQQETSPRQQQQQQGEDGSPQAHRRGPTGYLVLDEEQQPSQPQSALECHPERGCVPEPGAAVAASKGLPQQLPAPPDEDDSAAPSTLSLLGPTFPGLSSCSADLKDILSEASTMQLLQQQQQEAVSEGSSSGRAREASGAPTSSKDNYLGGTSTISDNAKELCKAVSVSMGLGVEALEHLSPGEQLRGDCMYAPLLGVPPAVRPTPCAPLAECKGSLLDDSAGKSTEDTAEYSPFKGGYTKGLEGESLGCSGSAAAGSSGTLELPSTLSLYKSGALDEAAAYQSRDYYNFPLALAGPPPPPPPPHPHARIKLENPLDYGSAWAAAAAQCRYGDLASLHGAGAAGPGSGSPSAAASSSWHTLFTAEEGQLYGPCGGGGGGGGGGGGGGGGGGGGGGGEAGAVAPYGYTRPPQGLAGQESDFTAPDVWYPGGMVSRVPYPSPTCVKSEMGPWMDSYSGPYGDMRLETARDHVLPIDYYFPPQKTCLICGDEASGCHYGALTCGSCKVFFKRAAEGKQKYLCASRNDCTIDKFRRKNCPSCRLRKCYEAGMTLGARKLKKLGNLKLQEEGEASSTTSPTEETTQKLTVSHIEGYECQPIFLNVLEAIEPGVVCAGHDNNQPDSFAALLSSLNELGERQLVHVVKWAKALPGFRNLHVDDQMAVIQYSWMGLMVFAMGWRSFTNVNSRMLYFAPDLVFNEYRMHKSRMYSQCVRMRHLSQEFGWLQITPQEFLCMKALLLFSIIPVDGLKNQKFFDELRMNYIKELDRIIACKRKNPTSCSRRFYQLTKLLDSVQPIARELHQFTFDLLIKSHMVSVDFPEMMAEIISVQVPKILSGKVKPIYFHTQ
UniProt P51531: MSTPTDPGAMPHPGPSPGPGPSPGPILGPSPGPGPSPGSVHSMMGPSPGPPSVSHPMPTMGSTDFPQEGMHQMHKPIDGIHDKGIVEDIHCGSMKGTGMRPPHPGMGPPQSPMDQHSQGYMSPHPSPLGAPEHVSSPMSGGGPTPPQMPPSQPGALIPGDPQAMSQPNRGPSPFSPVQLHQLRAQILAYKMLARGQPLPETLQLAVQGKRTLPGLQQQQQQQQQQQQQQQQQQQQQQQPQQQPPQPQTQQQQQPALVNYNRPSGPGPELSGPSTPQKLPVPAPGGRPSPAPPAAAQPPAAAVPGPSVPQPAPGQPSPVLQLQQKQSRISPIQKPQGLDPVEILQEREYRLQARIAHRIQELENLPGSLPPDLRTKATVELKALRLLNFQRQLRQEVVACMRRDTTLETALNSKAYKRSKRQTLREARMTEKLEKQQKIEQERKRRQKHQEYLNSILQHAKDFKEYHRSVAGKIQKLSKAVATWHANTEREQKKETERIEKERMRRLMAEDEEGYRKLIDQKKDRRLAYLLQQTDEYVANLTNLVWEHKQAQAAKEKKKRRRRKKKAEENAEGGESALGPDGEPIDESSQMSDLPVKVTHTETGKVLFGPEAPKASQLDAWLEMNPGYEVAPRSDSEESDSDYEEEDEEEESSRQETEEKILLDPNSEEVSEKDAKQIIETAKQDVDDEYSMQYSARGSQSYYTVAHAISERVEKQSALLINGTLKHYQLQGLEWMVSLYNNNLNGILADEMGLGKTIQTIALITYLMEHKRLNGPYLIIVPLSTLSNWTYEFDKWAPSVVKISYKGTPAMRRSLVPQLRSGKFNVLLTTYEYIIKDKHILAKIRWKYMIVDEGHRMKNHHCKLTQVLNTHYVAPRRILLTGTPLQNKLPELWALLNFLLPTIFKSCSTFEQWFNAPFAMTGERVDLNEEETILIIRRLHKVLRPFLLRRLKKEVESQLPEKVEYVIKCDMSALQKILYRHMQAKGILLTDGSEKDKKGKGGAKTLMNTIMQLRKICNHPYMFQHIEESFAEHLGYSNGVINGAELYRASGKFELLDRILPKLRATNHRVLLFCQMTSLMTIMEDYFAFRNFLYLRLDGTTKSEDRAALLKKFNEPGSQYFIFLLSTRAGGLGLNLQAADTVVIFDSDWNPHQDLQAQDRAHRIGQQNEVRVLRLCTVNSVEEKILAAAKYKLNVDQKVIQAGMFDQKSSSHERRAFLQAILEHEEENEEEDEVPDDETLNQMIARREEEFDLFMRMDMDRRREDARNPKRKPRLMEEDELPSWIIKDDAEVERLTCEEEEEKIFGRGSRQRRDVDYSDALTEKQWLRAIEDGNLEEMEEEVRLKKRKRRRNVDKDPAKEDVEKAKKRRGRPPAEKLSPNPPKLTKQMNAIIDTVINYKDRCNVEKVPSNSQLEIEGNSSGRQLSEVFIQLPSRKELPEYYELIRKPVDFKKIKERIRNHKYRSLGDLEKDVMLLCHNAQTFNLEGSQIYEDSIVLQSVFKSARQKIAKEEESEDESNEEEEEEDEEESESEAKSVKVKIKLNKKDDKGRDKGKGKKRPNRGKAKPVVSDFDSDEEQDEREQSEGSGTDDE
UniProt P05412: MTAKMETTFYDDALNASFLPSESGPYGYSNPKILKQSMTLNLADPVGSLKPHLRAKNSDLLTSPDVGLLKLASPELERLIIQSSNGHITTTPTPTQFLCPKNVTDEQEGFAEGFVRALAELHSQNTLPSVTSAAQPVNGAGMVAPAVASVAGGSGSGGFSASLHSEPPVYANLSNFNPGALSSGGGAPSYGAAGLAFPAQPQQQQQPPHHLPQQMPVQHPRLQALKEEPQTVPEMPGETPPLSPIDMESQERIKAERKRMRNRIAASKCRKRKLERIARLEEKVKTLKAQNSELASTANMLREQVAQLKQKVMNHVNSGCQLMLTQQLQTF
UniProt Q92925: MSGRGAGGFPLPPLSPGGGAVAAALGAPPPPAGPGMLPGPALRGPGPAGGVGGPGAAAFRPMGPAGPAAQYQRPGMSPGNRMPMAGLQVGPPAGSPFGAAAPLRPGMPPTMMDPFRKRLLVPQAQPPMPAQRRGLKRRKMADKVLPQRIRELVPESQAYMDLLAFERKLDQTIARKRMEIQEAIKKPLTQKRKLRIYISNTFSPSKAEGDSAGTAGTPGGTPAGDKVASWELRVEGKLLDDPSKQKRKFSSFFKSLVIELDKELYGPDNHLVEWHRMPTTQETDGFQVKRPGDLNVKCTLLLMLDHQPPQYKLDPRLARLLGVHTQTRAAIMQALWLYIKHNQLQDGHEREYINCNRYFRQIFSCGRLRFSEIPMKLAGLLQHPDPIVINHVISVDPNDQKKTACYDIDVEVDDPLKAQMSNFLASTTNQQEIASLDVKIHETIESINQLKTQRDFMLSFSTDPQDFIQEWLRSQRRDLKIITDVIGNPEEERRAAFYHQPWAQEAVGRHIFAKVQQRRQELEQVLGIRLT
UniProt P51532: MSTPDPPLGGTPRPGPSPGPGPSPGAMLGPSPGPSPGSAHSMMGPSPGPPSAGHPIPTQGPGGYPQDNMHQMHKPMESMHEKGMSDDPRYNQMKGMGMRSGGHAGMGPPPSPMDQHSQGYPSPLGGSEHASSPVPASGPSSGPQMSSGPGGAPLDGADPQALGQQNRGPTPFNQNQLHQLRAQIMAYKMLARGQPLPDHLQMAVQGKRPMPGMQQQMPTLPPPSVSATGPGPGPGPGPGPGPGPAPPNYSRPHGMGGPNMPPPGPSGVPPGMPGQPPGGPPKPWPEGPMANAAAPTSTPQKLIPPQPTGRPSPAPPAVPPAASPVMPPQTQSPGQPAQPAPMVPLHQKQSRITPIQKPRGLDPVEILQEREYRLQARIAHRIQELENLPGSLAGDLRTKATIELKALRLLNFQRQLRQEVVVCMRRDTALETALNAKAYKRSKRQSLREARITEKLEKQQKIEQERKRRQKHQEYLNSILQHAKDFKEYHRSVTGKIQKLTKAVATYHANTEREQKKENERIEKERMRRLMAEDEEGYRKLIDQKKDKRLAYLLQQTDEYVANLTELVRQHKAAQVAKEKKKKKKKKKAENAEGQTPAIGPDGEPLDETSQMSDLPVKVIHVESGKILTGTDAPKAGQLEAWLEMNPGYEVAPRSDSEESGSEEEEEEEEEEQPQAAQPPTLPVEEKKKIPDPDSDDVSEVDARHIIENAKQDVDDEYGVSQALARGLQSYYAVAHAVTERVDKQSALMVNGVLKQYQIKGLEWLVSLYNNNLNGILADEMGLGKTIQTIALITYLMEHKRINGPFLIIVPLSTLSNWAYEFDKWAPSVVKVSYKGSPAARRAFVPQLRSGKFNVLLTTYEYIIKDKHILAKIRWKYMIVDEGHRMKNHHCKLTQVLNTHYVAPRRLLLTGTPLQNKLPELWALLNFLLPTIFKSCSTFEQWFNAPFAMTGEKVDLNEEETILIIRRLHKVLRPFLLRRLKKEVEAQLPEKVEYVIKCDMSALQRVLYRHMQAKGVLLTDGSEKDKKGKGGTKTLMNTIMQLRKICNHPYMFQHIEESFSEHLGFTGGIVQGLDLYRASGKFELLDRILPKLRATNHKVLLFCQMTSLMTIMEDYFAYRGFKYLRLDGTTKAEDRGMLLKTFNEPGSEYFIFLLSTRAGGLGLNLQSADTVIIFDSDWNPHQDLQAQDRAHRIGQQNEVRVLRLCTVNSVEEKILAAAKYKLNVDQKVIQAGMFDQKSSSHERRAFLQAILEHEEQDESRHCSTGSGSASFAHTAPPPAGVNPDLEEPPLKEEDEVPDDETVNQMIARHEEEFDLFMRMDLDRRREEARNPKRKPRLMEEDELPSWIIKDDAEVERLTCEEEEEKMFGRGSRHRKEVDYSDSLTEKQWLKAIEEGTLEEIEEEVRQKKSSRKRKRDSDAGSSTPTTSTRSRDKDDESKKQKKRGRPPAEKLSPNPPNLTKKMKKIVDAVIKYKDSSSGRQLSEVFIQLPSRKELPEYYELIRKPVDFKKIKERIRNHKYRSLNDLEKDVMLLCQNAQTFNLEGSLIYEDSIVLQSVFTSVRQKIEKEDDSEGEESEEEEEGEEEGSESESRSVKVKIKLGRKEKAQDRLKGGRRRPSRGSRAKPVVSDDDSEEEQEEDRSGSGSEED
UniProt Q969G3: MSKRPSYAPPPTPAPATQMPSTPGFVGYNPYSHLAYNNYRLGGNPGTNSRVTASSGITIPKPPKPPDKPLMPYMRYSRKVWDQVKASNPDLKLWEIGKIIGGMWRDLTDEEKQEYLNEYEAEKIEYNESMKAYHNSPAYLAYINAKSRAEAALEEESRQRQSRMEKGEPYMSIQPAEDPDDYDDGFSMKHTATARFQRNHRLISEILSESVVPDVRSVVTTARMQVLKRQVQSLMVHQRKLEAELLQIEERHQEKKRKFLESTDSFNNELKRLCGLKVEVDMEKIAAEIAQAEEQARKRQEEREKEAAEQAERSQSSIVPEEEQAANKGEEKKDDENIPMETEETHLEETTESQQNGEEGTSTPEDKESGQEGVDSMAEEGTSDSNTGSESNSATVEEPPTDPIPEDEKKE

molecular target: HOXB13 (human (endogenous in LNCaP, 22Rv1, PC3 and human prostate tissue)) (UniProt Q92826); experiment: affinity purification with mass spectrometry

Row | binding | Molecule
1 | binds | androgen receptor (from UniProt P10275 1-920)
2 | binds | SMARCA2 (from UniProt P51531 1-1590)
3 | binds | cJUN (from UniProt P05412 1-331)
4 | binds | SMARCD2 (from UniProt Q92925 1-531)
5 | binds | PBRM1 (from UniProt Q86U86 1-1689)
6 | binds | SMARCA4 (from UniProt P51532 1-1647)
7 | binds | SMARCE1 (from UniProt Q969G3 1-411)
8 | binds | FOXA1 (protein, UniProt P55317 1-472) MLGTVKMEGHETSDWNSYYADTQEAYSSVPVSNMNSGLGSMNSMNTYMTMNTMTTSGNMTPASFNMSYANPGLGAGLSPGAVAGMPGGSAGAMNSMTAAGVTAMGTALSPSGMGAMGAQQAASMNGLGPYAAAMNPCMSPMAYAPSNLGRSRAGGGGDAKTFKRSYPHAKPPYSYISLITMAIQQAPSKMLTLSEIYQWIMDLFPYYRQNQQRWQNSIRHSLSFNDCFVKVARSPDKPGKGSYWTLHPDSGNMFENGCYLRRQKRFKCEKQPGAGGGGGSGSGGSGAKGGPESRKDPSGASNPSADSPLHRGVHGKTGQLEGAPAPGPAASPQTLDHSGATATGGASELKTPASSTAPPISSGPGALASVPASHPAHGLAPHESQLHLKGDPHYSFNHPFSINNLMSSSEQQHKLDFKAYEQALQYSPYGSTLPASLPLGSASVTTRSPIEPSALEPAYYQGVYSRPVLNTS

No constants are given. Whether binding was seen depends on the method and setting. In cells and extracts the contact can be indirect. These calls come from enrichment with a bait or labelling near it, and not all partners need be listed.
